Data as given in doi:10.1101/2025.11.03.686312.
Substitutions are numbered along the chain they refer to. Names may count otherwise. No constants are given. Whether binding was seen depends on the method and setting. In cells and extracts the contact can be indirect. These calls come from enrichment with a bait or labelling near it, and not all partners need be listed. For some assays here: A no says only that the protein was not detected with the bait.

Protein sequences, listed by entry. Tags and fused reporters are not part of them. Residues count along the entry.
UniProt Q9P0T7, residues 21-183: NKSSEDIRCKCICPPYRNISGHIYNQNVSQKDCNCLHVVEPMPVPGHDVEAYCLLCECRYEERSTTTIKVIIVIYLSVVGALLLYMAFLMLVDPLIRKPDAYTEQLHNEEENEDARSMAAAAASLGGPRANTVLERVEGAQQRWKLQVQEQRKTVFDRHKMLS
UniProt O75396: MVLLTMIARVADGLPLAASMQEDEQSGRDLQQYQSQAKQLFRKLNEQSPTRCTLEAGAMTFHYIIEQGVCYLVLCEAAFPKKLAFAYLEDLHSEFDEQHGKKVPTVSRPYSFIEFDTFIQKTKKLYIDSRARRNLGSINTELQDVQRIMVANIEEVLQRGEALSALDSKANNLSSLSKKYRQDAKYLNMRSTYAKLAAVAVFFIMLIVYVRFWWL

T1: ClC-5 E527D, stably expressed in RPTEC/TERT1 cells depleted of endogenous CLCN5 (human) (UniProt P51795)
T1 sequence: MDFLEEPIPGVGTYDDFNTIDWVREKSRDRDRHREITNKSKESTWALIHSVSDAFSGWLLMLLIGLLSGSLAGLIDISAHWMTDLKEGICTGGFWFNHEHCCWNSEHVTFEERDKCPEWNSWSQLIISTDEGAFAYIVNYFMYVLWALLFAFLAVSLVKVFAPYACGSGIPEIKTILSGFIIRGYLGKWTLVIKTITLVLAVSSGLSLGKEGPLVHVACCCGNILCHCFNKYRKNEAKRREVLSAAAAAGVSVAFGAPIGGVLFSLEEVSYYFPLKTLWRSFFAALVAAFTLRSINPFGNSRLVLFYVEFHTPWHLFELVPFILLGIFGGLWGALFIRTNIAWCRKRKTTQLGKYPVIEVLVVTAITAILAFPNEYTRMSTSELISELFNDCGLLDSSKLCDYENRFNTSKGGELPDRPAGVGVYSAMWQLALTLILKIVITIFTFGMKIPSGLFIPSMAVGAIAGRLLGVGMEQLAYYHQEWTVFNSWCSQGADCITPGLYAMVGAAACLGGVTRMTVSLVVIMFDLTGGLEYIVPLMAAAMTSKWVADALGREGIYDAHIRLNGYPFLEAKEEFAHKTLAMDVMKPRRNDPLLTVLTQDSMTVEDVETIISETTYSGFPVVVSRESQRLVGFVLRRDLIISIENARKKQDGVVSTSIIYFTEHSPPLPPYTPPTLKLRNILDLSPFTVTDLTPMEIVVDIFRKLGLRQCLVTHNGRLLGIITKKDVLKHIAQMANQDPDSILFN

T2: ClC-5 WT (Cl-/H+ antiporter ClC-5), stably expressed in RPTEC/TERT1 cells depleted of endogenous CLCN5 (human) (UniProt P51795)
T2 sequence: T1 sequence with D527E

T3: ClC-5 I524K, stably expressed in RPTEC/TERT1 cells depleted of endogenous CLCN5 (human) (UniProt P51795)
T3 sequence: T1 sequence with I524K, D527E

T4: ClC-5 V523Δ, stably expressed in RPTEC/TERT1 cells depleted of endogenous CLCN5 (human) (UniProt P51795)
T4 sequence: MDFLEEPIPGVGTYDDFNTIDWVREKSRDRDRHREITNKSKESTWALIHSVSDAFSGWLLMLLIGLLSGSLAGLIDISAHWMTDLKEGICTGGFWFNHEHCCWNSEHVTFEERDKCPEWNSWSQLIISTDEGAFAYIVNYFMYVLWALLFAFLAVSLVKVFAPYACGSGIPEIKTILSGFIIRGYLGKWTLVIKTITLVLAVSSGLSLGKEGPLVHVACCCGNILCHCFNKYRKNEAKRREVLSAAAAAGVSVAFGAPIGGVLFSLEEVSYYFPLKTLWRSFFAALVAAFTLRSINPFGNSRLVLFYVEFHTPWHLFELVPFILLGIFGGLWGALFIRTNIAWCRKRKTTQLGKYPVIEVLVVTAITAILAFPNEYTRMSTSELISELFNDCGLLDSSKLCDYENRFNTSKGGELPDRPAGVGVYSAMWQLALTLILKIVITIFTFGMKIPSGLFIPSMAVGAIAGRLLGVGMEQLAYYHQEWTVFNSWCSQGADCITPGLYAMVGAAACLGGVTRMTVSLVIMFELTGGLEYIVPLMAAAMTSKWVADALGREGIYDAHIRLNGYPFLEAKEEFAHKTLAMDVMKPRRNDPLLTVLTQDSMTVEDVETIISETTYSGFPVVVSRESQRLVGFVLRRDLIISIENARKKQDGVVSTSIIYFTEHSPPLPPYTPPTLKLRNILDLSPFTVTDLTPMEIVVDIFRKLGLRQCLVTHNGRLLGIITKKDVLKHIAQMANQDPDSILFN

B1: TCTN2, endogenous in RPTEC/TERT1 cells (protein, UniProt Q96GX1 26-697)
chain: DLAFIPPFIRMSGPAVSASLVGDTEGVTVSLAVLQDEAGILPIPTCGVLNNETEDWSVTVIPGAKVLEVTVRWKRGLDWCSSNETDSFSESPCILQTLLVSASHNSSCSAHLLIQVEIYANSSLTHNASENVTVIPNQVYQPLGPCPCNLTAGACDVRCCCDQECSSNLTTLFRRSCFTGVFGGDVNPPFDQLCSAGTTTRGVPDWFPFLCVQSPLANTPFLGYFYHGAVSPKQDSSFEVYVDTDAKDFADFGYKQGDPIMTVKKAYFTIPQVSLAGQCMQNAPVAFLHNFDVKCVTNLELYQERDGIINAKIKNVALGGIVTPKVIYEEATDLDKFITNTETPLNNGSTPRIVNVEEHYIFKWNNNTISEINVKIFRAEINAHQKGIMTQRFVVKFLSYNSGNEEELSGNPGYQLGKPVRALNINRMNNVTTLHLWQSAGRGLCTSATFKPILFGENVLSGCLLEVGINENCTQLRENAVERLDSLIQATHVAMRGNSDYADLSDGWLEIIRVDAPDPGADPLASSVNGMCLDIPAHLSIRILISDAGAVEGITQQEILGVETRFSSVNWQYQCGLTCEHKADLLPISASVQFIKIPAQLPHPLTRFQINYTEYDCNRNEVCWPQLLYPWTQYYQGELHSQCVAKGLLLLLFLTLALFLSNPWTRICKAYS
B2: ClC-5 E527D, stably expressed in RPTEC/TERT1 cells depleted of endogenous CLCN5 (protein, UniProt P51795-1 1-746)
chain: T1 sequence
B3: ClC-5 I524K, stably expressed in RPTEC/TERT1 cells depleted of endogenous CLCN5 (protein, UniProt P51795-1 1-746)
chain: T1 sequence with I524K, D527E

Legend:
Assay in all cases: affinity purification with mass spectrometry
[1] = biological target: T1, ClC-5 E527D, stably expressed in RPTEC/TERT1 cells depleted of endogenous CLCN5 (human)
[2] = biological target: T2, ClC-5 WT (Cl-/H+ antiporter ClC-5), stably expressed in RPTEC/TERT1 cells depleted of endogenous CLCN5 (human)
[3] = biological target: T3, ClC-5 I524K, stably expressed in RPTEC/TERT1 cells depleted of endogenous CLCN5 (human)
[4] = biological target: T4, ClC-5 V523Δ, stably expressed in RPTEC/TERT1 cells depleted of endogenous CLCN5 (human)

binding [1] | binding [2] | binding [3] | binding [4] | Molecule
binds | binds | binds | binds | TMEM9 (proton-transporting V-type ATPase complex assembly regulator TMEM9), endogenous in RPTEC/TERT1 cells (from UniProt Q9P0T7 21-183)
no binding | binds | no binding | no binding | SEC22B (vesicle-trafficking protein SEC22B, R-SNARE), endogenous in RPTEC/TERT1 cells (from UniProt O75396 1-215)
– | – | binds | – | B1
binds | – | – | – | B2
– | – | binds | – | B3
